In all, about 1,700 compounds were measured (“T3 sensor activation Q score (MG/GFP ratio z-score vs DMSO controls)”: median about 0.25, highest 2% from about 1.9 on). Some of the results follow.

For the experiment, the system named is ppGalNAc-T3 sensor. The experiment is described as follows: T3 sensor activation Q score (MG/GFP ratio z-score vs DMSO controls) (SD units); higher = more sensor activation (inhibition of ppGalNAc-T3 glycosylation). As to conditions: HEK293 sensor cells; 10 µM; 6 h. On the procedure: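 Cells were treated with compound at 10 uM for 6 h, then MG/GFP ratio was read by flow cytometry (10,000 cells per well, duplicate wells). Q = (R - R_neg)/SD_neg relative to DMSO vehicle controls; the signal rises when the glycosyltransferase is inhibited.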
For the compound `O=C(O)/C=C/C(=O)Nc1cccc2cccnc12`, the “T3 sensor activation Q score” value is 0.7.

Consider `Cc1cc(C)c2c(SC(C)C)nc(N)nc2n1`, for which the “T3 sensor activation Q score” value was -1.35.

With `O=C(NN1CCCCC1)NN1CCCCC1`, the “T3 sensor activation Q score” value was 1.35.

For `CC1=C2C3OC(=O)C(C)C3CCC2(C)C=C(Cl)C1=O` (stereo not given), the “T3 sensor activation Q score” value turned out to be 1.1.

As to `CCCN(CCC)c1ccc(/C=C/c2ccc3cc(OCC)ccc3n2)cc1`, the “T3 sensor activation Q score” value turned out to be 1.4.

Consider `Clc1ncnc2[nH]ccc12`, for which the “T3 sensor activation Q score” value is -0.05.

As for `Cc1ccc2c(c1)C(=C(C#N)C#N)CCN2`, the “T3 sensor activation Q score” value worked out at 0.05.

In the case of `OCc1nnn(-c2ccccc2)c1CO`, the “T3 sensor activation Q score” value was -1.

Regarding `NNC(=O)c1nnsc1-c1csnn1`, the “T3 sensor activation Q score” value amounted to 1.2.

`C/C(=C\c1csc(C)n1)[C@@H]1C[C@@H]2O[C@]2(C)CCC[C@H](C)[C@H](O)[C@@H](C)C(=O)C(C)(C)[C@@H](O)CC(=O)N1`: the “T3 sensor activation Q score” value is -1.25.

In the case of `Nc1ccc(C(=O)Oc2ccc([N+](=O)[O-])cc2)cc1`, the “T3 sensor activation Q score” value is -0.5.

In the case of `N#Cc1ccc(NC2c3ccccc3CC2O)cc1` (stereo not given), the “T3 sensor activation Q score” value was -0.45.

As to `c1cncc(-c2nc3ccccc3s2)c1`, the “T3 sensor activation Q score” value stood at 0.45.

In the case of `O=C(CSc1nc2ccc([N+](=O)[O-])cc2s1)c1ccc2ccccc2c1`, the “T3 sensor activation Q score” value was 0.35.

As for `CN1C(=C=Cc2cc(I)c(O)c(I)c2)C(C)(C)c2ccccc21`, the “T3 sensor activation Q score” value is 1.9.

For `Nc1nc2ccc([N+](=O)[O-])cc2[nH]1`, the “T3 sensor activation Q score” value came to 1.55.

Turning to `CC(=O)NC1(C(=O)O)CCCC1`, the “T3 sensor activation Q score” value was -1.1.

Take `Cc1ccc(NC(=O)c2ccc(CN3CCN(C)CC3)cc2)cc1Nc1nccc(-c2cccnc2)n1`: the “T3 sensor activation Q score” value was -1.55.

In the case of `CCOC(=O)c1[nH]c(C(=O)O)c(OC(=O)CC)c1C`, the “T3 sensor activation Q score” value was found to be 0.75.

Turning to `ClC(Cl)(Cl)C1=NCc2nnn(Cc3ccccc3)c2N1`, the “T3 sensor activation Q score” value is -1.2.

As for `COc1cc2c(Nc3ccc(Br)cc3F)ncnc2cc1OCC1CCN(C)CC1`, the “T3 sensor activation Q score” value is 2.1.

In the case of `O=c1[nH]c(SCc2ccccc2[N+](=O)[O-])nc2nc[nH]c12`, the “T3 sensor activation Q score” value worked out at 0.3.

For the compound `Nc1nc(=S)ss1`, the “T3 sensor activation Q score” value is -0.2.

Consider `Cc1ccc(/C=C2\CCOC2=O)cc1`, for which the “T3 sensor activation Q score” value came to 0.9.

For `c1ccc(CSc2nc3ncncc3[nH]2)cc1`, the “T3 sensor activation Q score” value is -1.15.

On to `CCCCCc1cccnc1`, for which the “T3 sensor activation Q score” value came to 0.9.

For the compound `O=Cc1c[nH]c2ncccc12`, the “T3 sensor activation Q score” value was 0.

Take `C#CCSc1n[nH]c(-c2ccco2)n1`: the “T3 sensor activation Q score” value was determined as 0.05.

For the compound `C1C2CC3C1C3/C2=N\N=C1/C2CC3C(C2)C13`, the “T3 sensor activation Q score” value is 0.1.

As to `FC(F)(F)c1cccc(OCC2CNC(=S)O2)c1` (stereo not given), the “T3 sensor activation Q score” value came out at 1.65.

On to `Cc1cc2cc3c(=O)[nH]c(=O)cc-3n(CC(O)C(O)C(O)CO)c2cc1C` (stereo not given), for which the “T3 sensor activation Q score” value is 1.75.

Regarding `Nc1n[nH]c(=S)n1-c1ccc(Cl)cc1`, the “T3 sensor activation Q score” value turned out to be 1.5.

`COc1ccccc1NC(=O)c1cc2ccccc2cc1O`: the “T3 sensor activation Q score” value was -0.55.

For the compound `CN(CC(=O)O)Cc1oc(CO)cc(=O)c1O`, the “T3 sensor activation Q score” value came to 0.25.

Regarding `c1ccc2c(c1)Oc1cccc3cccc-2c13`, the “T3 sensor activation Q score” value was determined as 1.6.

For `CCCCn1ccnc1C`, the “T3 sensor activation Q score” value is 0.85.

As for `Cc1cc(-c2ccc(N3C(=O)CC4(CCCC4)C3=O)c(C)c2)ccc1N1C(=O)CC2(CCCC2)C1=O`, the “T3 sensor activation Q score” value came to 0.35.

Consider `N#Cc1[nH]nc2nc[nH]c(=O)c12`, for which the “T3 sensor activation Q score” value is -0.4.

Regarding `O=C(O)CCC(=O)OCCN(Cc1ccc(Oc2ccc([N+](=O)[O-])cc2)cc1)C(=O)C(Cl)Cl`, the “T3 sensor activation Q score” value was determined as 0.2.

For the compound `CC1=C(/C=C/C(C)=C/C=C/C(C)=C/C(=O)O)C(C)(C)CCC1`, the “T3 sensor activation Q score” value was -0.05.

Regarding `CCOc1ccc(Nc2c3ccccc3nc3ccccc23)cc1`, the “T3 sensor activation Q score” value is -0.5.

Take `O=[N+]([O-])c1cccnc1Oc1cccnc1`: the “T3 sensor activation Q score” value was 0.55.

Take `Cc1ccc(Nc2c(O)nc[nH]c2=O)cc1C`: the “T3 sensor activation Q score” value is -0.35.

Consider `Nc1ccc(S(=O)(=O)NCC2CCCCO2)cc1` (stereo not given), for which the “T3 sensor activation Q score” value worked out at 1.6.

On to `COc1ccc2c(c1)c1ccc3c(c1n2C)C(=O)C=CC3=O`, for which the “T3 sensor activation Q score” value is -0.85.

Take `Cc1cc2nc(CS)[nH]c2cc1C`: the “T3 sensor activation Q score” value is -1.1.

On to `COc1ccc(/C(C#N)=C/c2ccccn2)cc1`, for which the “T3 sensor activation Q score” value was found to be 0.95.

Turning to `COc1ccc(C2C3=C(COC3=O)Oc3cc4c(cc32)OCO4)cc1OC` (stereo not given), the “T3 sensor activation Q score” value is 0.05.

On to `CCCCN1C(=O)CC2CCOC21C` (stereo not given), for which the “T3 sensor activation Q score” value is -0.85.

Consider `c1ccc(Sc2ncccn2)nc1`, for which the “T3 sensor activation Q score” value was 0.5.

On to `C#Cc1cccc(NC(=O)c2ccc(Cl)cc2Cl)c1`, for which the “T3 sensor activation Q score” value is -0.65.

In the case of `O=[N+]([O-])c1cc(-c2cccnc2)n[nH]1`, the “T3 sensor activation Q score” value is 1.

`O=C(C(=O)c1cccnc1)c1cccnc1`: the “T3 sensor activation Q score” value was determined as 1.75.

On to `O=C(CCl)NC1(C(=O)O)CCCC1`, for which the “T3 sensor activation Q score” value is 0.85.

For `CCOC(=O)Nc1ccc(C(=O)/C=C/c2ccccc2)cc1`, the “T3 sensor activation Q score” value was 0.85.

As to `Cc1ccccc1NC(=O)Oc1cccc(OC(=O)c2ccccc2)c1`, the “T3 sensor activation Q score” value came out at 1.1.

Take `CCC/C(C)=C/c1ccc(CC)cn1`: the “T3 sensor activation Q score” value is -0.85.

For `CC(C)=NNc1ncnc2nc[nH]c12`, the “T3 sensor activation Q score” value was 0.55.

In the case of `CO[C@H]1C[C@@H]2CC[C@@H](C)[C@@](O)(O2)C(=O)C(=O)N2CCCC[C@H]2C(=O)O[C@H]([C@H](C)C[C@@H]2CC[C@@H](OCCO)[C@H](OC)C2)CC(=O)[C@H](C)/C=C(\C)[C@@H](O)[C@@H](OC)C(=O)[C@H](C)C[C@H](C)/C=C/C=C/C=C/1C`, the “T3 sensor activation Q score” value was determined as 0.25.

As for `Nc1ccn([C@@H]2O[C@H](CO)[C@@H](O)C2(F)F)c(=O)n1`, the “T3 sensor activation Q score” value was -1.2.

As to `CC(=O)O[C@@]12CO[C@@H]1C[C@H](O)[C@@]1(C)C(=O)[C@H](O)C3=C(C)[C@@H](OC(=O)[C@H](O)[C@@H](NC(=O)OC(C)(C)C)c4ccccc4)C[C@@](O)([C@@H](OC(=O)c4ccccc4)[C@H]21)C3(C)C`, the “T3 sensor activation Q score” value was -1.

With `N#CCCCCN1CCCC1`, the “T3 sensor activation Q score” value was -0.25.

Turning to `O=c1nc2onnc2c(/C=N\O)[nH]1`, the “T3 sensor activation Q score” value stood at 1.2.

For the compound `Nc1cccc2c1C(=O)N(C1CCC(=O)NC1=O)C2=O` (stereo not given), the “T3 sensor activation Q score” value is -0.1.

For `NC(=O)Cc1ccc2c(c1)[nH]c1ccccc12`, the “T3 sensor activation Q score” value worked out at 0.35.

Regarding `CC(C)(C)C(=O)/C=C/c1ccc(Oc2ccccc2)cc1`, the “T3 sensor activation Q score” value was -0.3.

In the case of `CCCCCc1cc(=O)[nH]c(=S)[nH]1`, the “T3 sensor activation Q score” value is -0.65.

Take `CC1(c2ccc3ccccc3c2)CCC(=O)O1` (stereo not given): the “T3 sensor activation Q score” value is -0.4.

With `COC1OC(CO)C(N=C(C)C)C1O` (stereo not given), the “T3 sensor activation Q score” value was -0.35.

With `CC(C)=CCC/C(C)=C\C(N)=O`, the “T3 sensor activation Q score” value was found to be 0.2.

Take `NC(=O)NC(=O)c1nccnc1C(=O)O`: the “T3 sensor activation Q score” value turned out to be 0.7.

Regarding `CCC(CC)c1ncc[nH]1`, the “T3 sensor activation Q score” value came to 1.8.

On to `C=CCOc1c(CCC)cc(CCC)cc1C(N)=O`, for which the “T3 sensor activation Q score” value is 0.45.

With `Cc1ccc(CC#N)c(-c2c(CC#N)ccc(C)c2C)c1C`, the “T3 sensor activation Q score” value was -0.85.

For `CC(C)Cc1nnc(N)s1`, the “T3 sensor activation Q score” value was found to be 0.55.

With `Cc1cccc(N2CCN(CC(O)COc3ccccc3Cl)CC2)c1` (stereo not given), the “T3 sensor activation Q score” value amounted to 0.

As for `O=c1cc2oc3cc(O)c(O)cc3c(-c3ccccc3O)c-2cc1O`, the “T3 sensor activation Q score” value is -1.25.

Regarding `O=C1NCCc2c1[nH]c1ccccc21`, the “T3 sensor activation Q score” value was -0.6.

As to `CC(=O)OC1CCC2(C)C(=CCC3C2CCC2(C)C3CC3OC4(CCC(C)CN4)C(C)C32)C1` (stereo not given), the “T3 sensor activation Q score” value was determined as 0.25.

Consider `Cc1ccc(NC(=O)Nc2ccccc2C(N)=O)cc1`, for which the “T3 sensor activation Q score” value was -0.95.

For the origin of these results see the supplement of paper PMC5407854, “Inhibitor of ppGalNAc-T3-mediated O-glycosylation blocks cancer cell invasiveness and lowers FGF23 levels” (eLife, 2017).
